Experimental data: publication PMC11995063
Results are given in words; binding and its absence hold for the method and conditions named. In cells and extracts the contact can be indirect. Some binding calls cover weakened binding; strength is not graded here.

The chains behind the UniProt entries cited, without tags or fusion partners.
UniProt Q7Z6E9: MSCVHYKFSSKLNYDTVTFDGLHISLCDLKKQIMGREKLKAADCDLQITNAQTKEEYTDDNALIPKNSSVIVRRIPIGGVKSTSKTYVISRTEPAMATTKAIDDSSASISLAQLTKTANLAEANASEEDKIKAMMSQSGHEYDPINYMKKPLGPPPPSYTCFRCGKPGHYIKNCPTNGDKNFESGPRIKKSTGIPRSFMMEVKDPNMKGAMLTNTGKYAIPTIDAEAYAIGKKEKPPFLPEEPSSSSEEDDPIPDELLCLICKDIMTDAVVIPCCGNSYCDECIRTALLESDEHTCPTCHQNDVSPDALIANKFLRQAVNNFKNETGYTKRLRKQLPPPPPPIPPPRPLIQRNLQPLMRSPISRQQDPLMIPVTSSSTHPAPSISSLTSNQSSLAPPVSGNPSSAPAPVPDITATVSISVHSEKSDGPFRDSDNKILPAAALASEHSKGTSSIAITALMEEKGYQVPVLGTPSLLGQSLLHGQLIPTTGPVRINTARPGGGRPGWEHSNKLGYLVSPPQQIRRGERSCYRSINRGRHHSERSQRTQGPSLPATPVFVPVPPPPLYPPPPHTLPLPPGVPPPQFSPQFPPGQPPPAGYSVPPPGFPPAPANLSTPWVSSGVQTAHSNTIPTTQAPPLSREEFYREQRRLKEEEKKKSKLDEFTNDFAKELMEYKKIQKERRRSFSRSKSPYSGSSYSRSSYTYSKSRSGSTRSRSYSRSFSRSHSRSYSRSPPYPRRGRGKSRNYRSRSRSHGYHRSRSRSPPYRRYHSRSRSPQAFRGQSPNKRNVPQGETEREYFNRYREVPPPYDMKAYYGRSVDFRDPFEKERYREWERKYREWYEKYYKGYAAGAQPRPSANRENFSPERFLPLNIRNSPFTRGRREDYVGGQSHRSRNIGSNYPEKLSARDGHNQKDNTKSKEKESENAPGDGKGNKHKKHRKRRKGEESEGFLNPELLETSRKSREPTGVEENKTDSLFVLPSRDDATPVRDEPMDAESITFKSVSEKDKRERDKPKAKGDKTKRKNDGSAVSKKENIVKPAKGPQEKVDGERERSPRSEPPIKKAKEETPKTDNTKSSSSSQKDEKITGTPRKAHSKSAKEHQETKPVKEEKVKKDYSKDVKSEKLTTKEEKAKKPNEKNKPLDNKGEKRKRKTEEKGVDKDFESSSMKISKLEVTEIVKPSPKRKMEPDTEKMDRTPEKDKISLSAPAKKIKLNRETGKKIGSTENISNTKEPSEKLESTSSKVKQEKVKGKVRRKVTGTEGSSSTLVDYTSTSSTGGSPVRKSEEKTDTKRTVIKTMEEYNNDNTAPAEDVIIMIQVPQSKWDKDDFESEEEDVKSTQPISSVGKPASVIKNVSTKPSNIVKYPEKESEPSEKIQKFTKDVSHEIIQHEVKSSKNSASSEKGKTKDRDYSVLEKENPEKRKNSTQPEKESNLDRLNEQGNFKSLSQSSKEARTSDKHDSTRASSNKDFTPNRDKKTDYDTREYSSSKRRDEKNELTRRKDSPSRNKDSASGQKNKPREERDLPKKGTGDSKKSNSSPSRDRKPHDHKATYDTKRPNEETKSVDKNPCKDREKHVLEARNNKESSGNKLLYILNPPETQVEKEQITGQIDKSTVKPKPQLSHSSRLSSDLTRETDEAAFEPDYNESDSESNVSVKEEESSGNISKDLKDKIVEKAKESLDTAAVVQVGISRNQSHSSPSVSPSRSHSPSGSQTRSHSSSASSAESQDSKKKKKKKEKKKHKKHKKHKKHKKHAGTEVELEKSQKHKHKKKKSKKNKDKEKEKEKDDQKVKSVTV

Biological target: T1, junction plakoglobin (UniProt P14923)
T1 sequence: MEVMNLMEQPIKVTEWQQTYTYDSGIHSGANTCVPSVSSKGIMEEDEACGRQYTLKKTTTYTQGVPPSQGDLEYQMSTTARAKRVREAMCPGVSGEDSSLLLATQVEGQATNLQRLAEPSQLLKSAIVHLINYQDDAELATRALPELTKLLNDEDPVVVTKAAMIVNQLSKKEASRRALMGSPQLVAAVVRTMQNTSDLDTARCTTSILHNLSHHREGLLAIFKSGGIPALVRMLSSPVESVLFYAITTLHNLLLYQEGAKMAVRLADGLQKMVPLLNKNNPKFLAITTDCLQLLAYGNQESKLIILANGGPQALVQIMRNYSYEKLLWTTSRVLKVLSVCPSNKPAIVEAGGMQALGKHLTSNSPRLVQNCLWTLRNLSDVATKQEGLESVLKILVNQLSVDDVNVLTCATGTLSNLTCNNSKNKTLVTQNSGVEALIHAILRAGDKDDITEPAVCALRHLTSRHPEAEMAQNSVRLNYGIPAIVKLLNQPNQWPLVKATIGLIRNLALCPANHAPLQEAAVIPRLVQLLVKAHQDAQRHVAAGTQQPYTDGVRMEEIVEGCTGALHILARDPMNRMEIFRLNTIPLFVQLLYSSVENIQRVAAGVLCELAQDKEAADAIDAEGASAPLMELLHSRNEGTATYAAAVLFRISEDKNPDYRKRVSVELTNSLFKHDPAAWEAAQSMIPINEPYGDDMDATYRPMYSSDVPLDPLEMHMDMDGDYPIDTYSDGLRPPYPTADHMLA
Experiment: co-IP; cells not given; also done after knockdown of circSSU72 (binding reduced)

Substance: retinoblastoma-binding protein 6 (from UniProt Q7Z6E9 1-1792)
- binding: binds
